Laboratory results published in paper PMC9257318.
No constants are given. Whether binding was seen depends on the method and setting. Binding seen in cells or lysates may run through a third protein. Some entries that bind do so weakly or less than the wild type. For some of these results: Tags and fused reporters may be left off the sequences shown.

Sequences of proteins named here, by UniProt entry; tags and fusion partners are left off.
UniProt Q92769: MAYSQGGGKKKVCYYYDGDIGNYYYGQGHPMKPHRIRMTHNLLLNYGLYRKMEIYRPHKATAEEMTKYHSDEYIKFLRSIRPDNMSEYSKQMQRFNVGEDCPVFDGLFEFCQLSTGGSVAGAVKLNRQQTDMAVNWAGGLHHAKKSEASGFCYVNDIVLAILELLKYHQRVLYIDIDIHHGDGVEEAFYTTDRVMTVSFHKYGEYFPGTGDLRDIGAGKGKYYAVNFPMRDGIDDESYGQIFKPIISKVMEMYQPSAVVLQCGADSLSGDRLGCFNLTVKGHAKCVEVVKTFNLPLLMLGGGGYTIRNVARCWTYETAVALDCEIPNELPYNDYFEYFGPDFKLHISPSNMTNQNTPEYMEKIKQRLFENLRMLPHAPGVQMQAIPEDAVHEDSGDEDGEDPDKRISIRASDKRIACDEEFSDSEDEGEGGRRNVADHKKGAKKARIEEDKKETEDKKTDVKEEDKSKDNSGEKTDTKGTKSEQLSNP
UniProt Q13547: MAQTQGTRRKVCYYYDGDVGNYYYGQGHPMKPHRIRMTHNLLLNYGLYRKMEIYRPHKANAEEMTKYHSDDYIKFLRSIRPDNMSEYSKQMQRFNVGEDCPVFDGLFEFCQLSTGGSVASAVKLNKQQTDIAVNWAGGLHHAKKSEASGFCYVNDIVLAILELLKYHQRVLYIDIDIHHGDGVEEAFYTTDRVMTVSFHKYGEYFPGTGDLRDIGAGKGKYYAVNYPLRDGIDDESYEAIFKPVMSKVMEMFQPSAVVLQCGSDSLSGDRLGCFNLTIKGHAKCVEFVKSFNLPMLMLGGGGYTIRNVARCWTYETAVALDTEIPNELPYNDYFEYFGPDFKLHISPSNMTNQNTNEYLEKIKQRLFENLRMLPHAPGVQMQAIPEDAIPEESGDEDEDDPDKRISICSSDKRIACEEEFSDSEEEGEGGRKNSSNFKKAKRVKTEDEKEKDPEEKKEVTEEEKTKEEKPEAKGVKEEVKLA

T1: euchromatic histone-lysine N-methyltransferase 2 (EHMT2) (human (endogenous in MCL cells)), Q96KQ7
T1 chain: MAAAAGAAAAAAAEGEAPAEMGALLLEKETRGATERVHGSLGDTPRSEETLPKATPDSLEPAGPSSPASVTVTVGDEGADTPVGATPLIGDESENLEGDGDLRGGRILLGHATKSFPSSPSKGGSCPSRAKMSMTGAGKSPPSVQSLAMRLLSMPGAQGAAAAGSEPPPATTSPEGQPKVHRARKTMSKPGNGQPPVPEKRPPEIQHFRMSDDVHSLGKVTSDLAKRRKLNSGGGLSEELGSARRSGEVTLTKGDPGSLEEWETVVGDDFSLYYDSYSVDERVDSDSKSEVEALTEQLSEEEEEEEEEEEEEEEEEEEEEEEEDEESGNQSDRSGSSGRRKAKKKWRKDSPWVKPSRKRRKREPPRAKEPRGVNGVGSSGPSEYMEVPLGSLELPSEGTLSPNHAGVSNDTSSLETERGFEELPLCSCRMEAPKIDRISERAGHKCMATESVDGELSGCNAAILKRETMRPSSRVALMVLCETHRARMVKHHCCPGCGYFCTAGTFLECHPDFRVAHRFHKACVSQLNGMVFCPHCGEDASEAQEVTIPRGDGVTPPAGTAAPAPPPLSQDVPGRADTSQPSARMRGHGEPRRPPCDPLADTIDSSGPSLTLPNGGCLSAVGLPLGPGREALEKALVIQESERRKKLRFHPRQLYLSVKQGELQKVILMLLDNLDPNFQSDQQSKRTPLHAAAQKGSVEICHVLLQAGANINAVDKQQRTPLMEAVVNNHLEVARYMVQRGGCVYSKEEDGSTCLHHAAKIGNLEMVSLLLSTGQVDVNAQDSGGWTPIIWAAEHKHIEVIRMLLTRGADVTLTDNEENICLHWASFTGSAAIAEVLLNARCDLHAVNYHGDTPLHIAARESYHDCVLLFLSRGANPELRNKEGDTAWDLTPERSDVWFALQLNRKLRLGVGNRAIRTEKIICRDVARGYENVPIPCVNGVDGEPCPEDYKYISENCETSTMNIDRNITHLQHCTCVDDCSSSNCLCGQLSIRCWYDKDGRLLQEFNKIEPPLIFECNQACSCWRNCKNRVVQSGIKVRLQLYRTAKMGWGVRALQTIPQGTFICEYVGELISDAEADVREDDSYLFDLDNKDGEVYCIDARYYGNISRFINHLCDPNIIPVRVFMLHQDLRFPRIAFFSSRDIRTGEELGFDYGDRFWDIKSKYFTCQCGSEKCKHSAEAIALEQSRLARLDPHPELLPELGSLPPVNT

B1: ubiquitin-like, containing PHD and RING finger domains, 1 (UHRF1) (protein, UniProt Q96T88 1-793)
chain: MWIQVRTMDGRQTHTVDSLSRLTKVEELRRKIQELFHVEPGLQRLFYRGKQMEDGHTLFDYEVRLNDTIQLLVRQSLVLPHSTKERDSELSDTDSGCCLGQSESDKSSTHGEAAAETDSRPADEDMWDETELGLYKVNEYVDARDTNMGAWFEAQVVRVTRKAPSRDEPCSSTSRPALEEDVIYHVKYDDYPENGVVQMNSRDVRARARTIIKWQDLEVGQVVMLNYNPDNPKERGFWYDAEISRKRETRTARELYANVVLGDDSLNDCRIIFVDEVFKIERPGEGSPMVDNPMRRKSGPSCKHCKDDVNRLCRVCACHLCGGRQDPDKQLMCDECDMAFHIYCLDPPLSSVPSEDEWYCPECRNDASEVVLAGERLRESKKKAKMASATSSSQRDWGKGMACVGRTKECTIVPSNHYGPIPGIPVGTMWRFRVQVSESGVHRPHVAGIHGRSNDGAYSLVLAGGYEDDVDHGNFFTYTGSGGRDLSGNKRTAEQSCDQKLTNTNRALALNCFAPINDQEGAEAKDWRSGKPVRVVRNVKGGKNSKYAPAEGNRYDGIYKVVKYWPEKGKSGFLVWRYLLRRDDDEPGPWTKEGKDRIKKLGLTMQYPEGYLEALANREREKENSKREEEEQQEGGFASPRTGKGKWKRKSAGGGPSRAGSPRRTSKKTKVEPYSLTAQQSSLIREDKSNAKLWNEVLASLKDRPASGSPFQLFLSKVEETFQCICCQELVFRPITTVCQHNVCKDCLDRSFRAQVFSCPACRYDLGRSYAMQVNQPLQTVLNQLFPGYGNGR
B2: HDAC3, O15379 1-428 (protein)
chain: MAKTVAYFYDPDVGNFHYGAGHPMKPHRLALTHSLVLHYGLYKKMIVFKPYQASQHDMCRFHSEDYIDFLQRVSPTNMQGFTKSLNAFNVGDDCPVFPGLFEFCSRYTGASLQGATQLNNKICDIAINWAGGLHHAKKFEASGFCYVNDIVIGILELLKYHPRVLYIDIDIHHGDGVQEAFYLTDRVMTVSFHKYGNYFFPGTGDMYEVGAESGRYYCLNVPLRDGIDDQSYKHLFQPVINQVVDFYQPTCIVLQCGADSLGCDRLGCFNLSIRGHGECVEYVKSFNIPLLVLGGGGYTVRNVARCWTYETSLLVEEAISEELPYSEYFEYFAPDFTLHPDVSTRIENQNSRQYLDQIRQTIFENLKMLNHAPSVQIHDVPADLLTYDRTDEADAEERGPEENYSRPEAPNEFYDGDHDNDKESDVEI

What was measured:
[1] = target: euchromatic histone-lysine N-methyltransferase 2 (EHMT2) (human (endogenous in MCL cells)) (UniProt Q96KQ7); assay: co-IP; immunoprecipitation of endogenous EHMT2 from MCL cell lysate with the Pierce Crosslink Immunoprecipitation Kit, antibody overnight at 4 °C, anti-IgG as negative control; eluate analysed by western blotting
[2] = target: T1, euchromatic histone-lysine …; assay: as above; conditions: remark: other sources report otherwise

Row | Molecule | binding [1] | binding [2]
1 | HDAC2 (from UniProt Q92769 1-488) | binds | 
2 | HDAC1 (from UniProt Q13547 1-482) | binds | 
3 | B1 | binds | 
4 | B2 |  | no binding
